# PubChem BioAssay AID493246, Drosophila RNAi Screening Center, 2011
# Screen: 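Genes fly cells need to grow and stay alive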 (primary screen)
# System: Drosophila Kc and S2R+ cells
# Knock-down reagent: long dsRNA against Drosophila genes
# Measurement: 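Cell number per well after knock-down, printed as raw plate values; calls were based on per-plate z-scores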
# Scale: Kc cell number and S2R+ cell number: higher = more cells remaining
# Hit rule: 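Counted as a hit if cell number falls by a z-score of at least 3 within its plate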
# The screen tested about 21,000 reagents; shown is a random part of those that have a named target and a result. Of all reagents, 429 (2%) got an active call. 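Values are raw and not normalised between plates; calls rest on per-plate z-scores that were not deposited.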 Names joined by + are all predicted targets of the reagent. No sequences are given here. The record does not give: the amount of reagent, the time to read-out.
Target gene,amplicon,"Kc cell number, rep 1","Kc cell number, rep 2","S2R+ cell number, rep 1","S2R+ cell number, rep 2",call
RpL8,DRSC08532,8.67e5,9.12e5,5.71e5,7.29e5,active
RpL8,DRSC08695,8.43e5,8.86e5,5.81e5,7.23e5,active
PH4alphaNE2,DRSC16544,1.63e6,1.66e6,1.05e6,1.13e6,inactive
HP1e,DRSC16379,1.66e6,1.72e6,1.22e6,1.35e6,inactive
MFS15,DRSC06523,1.71e6,1.75e6,1.15e6,1.38e6,inactive
CG4115,DRSC15545,1.61e6,1.53e6,1.27e6,1.30e6,inactive
CG14153,DRSC10155,1.41e6,1.55e6,1.25e6,1.36e6,inactive
CG11686,DRSC14350,1.38e6,1.36e6,1.09e6,1.23e6,inactive
sw + Sdic4 + Sdic3 + 2 more,DRSC20696,1.54e6,1.58e6,1.07e6,1.17e6,inactive
Pdk,DRSC07504,1.27e6,1.35e6,1.11e6,1.15e6,inactive
Pcyt1,DRSC08157,1.40e6,1.45e6,1.10e6,1.12e6,inactive
Phf7,DRSC20692,1.54e6,1.61e6,1.11e6,1.20e6,inactive
CG3842,DRSC18326,1.63e6,1.43e6,1.03e6,1.08e6,inactive
CG3430,DRSC02713,1.28e6,1.33e6,5.70e5,8.53e5,inactive
CG8492,DRSC10984,1.44e6,1.68e6,1.27e6,1.26e6,inactive
cysu,DRSC15902,1.17e6,1.21e6,1.08e6,1.21e6,inactive
Syx17,DRSC08591,1.48e6,1.47e6,1.35e6,1.23e6,inactive
muskelin,DRSC07273,1.69e6,1.67e6,1.26e6,1.37e6,inactive
vap,DRSC20275,5.35e5,,9.60e5,,inactive
speck,DRSC04608,1.31e6,1.35e6,1.09e6,1.21e6,inactive
CG13231,DRSC06351,1.57e6,1.65e6,1.23e6,1.33e6,inactive
Tsp47F,DRSC07325,1.38e6,1.45e6,8.66e5,9.78e5,inactive
jtb,DRSC06868,1.60e6,1.62e6,1.12e6,1.24e6,inactive
CG14551,DRSC14894,1.45e6,1.63e6,1.06e6,1.17e6,inactive
CG3355,DRSC00598,1.44e6,1.43e6,1.14e6,1.25e6,inactive
CG44838,DRSC10330,6.73e5,9.07e5,5.28e5,6.22e5,active
CG44838,DRSC10371,1.36e6,1.41e6,1.28e6,1.23e6,inactive
ox,DRSC07520,1.64e6,1.58e6,1.17e6,1.30e6,inactive
Oseg1,DRSC10776,1.37e6,1.45e6,1.15e6,1.12e6,inactive
CG10418,DRSC09720,1.41e6,1.56e6,1.32e6,1.38e6,inactive
CG6527,DRSC10659,1.69e6,1.73e6,1.31e6,1.46e6,inactive
CG17994,DRSC04877,1.77e6,1.85e6,1.30e6,1.47e6,inactive
ninaD,DRSC02886,1.64e6,1.95e6,1.23e6,1.39e6,inactive
CG42673,DRSC08989,1.47e6,1.66e6,1.17e6,1.36e6,inactive
CG42673,DRSC08991,9.62e5,7.06e5,6.37e5,7.21e5,active
CG42673,DRSC10177,1.56e6,1.46e6,1.37e6,1.49e6,inactive
CG42673,DRSC10264,1.55e6,1.62e6,1.38e6,1.53e6,inactive
CG42673,DRSC10353,1.37e6,1.85e6,1.28e6,1.32e6,inactive
CG42673,DRSC10354,1.34e6,1.43e6,1.21e6,1.31e6,inactive
Rpp30,DRSC00320,1.30e6,1.41e6,1.06e6,1.00e6,inactive
CG12567,DRSC20845,1.69e6,1.69e6,1.13e6,1.30e6,inactive
CG7460,DRSC10850,1.43e6,1.52e6,1.32e6,1.47e6,inactive
pygo,DRSC14322,3.53e5,,5.23e5,,inactive
CanA1,DRSC16600,1.43e6,1.46e6,1.03e6,1.10e6,inactive
CG33232 (retired record),DRSC08187,1.39e6,1.49e6,1.30e6,1.37e6,inactive
CG33232 (retired record),DRSC08495,1.27e6,1.57e6,1.00e6,1.17e6,inactive

Looked up above.
CG13231 [DRSC06351], S2R+ cell number, rep 2 = 1.33e6
Under “Kc cell number, rep 1”, Phf7 [DRSC20692] shows 1.54e6
Entry of CG44838 [DRSC10371] under “Kc cell number, rep 1”: 1.36e6
vap [DRSC20275], S2R+ cell number, rep 1 → 9.60e5
For “call”, ox [DRSC07520] has inactive
CG7460 [DRSC10850], S2R+ cell number, rep 2 = 1.47e6

Further reagents:
Target gene,amplicon,"Kc cell number, rep 1","Kc cell number, rep 2","S2R+ cell number, rep 1","S2R+ cell number, rep 2",call
Rrp45,DRSC20198,1.40e6,1.45e6,1.00e6,1.09e6,inactive
CG33340,DRSC14615,1.64e6,1.86e6,1.04e6,1.17e6,inactive
Vha100-1,DRSC14148,5.11e5,,7.94e5,,inactive
Su(P),DRSC11291,1.58e6,1.68e6,1.22e6,1.39e6,inactive
CG8545,DRSC07210,1.45e6,1.56e6,9.48e5,1.08e6,inactive
Bcs1,DRSC02789,1.51e6,1.57e6,1.12e6,1.26e6,inactive
Nph,DRSC16342,1.55e6,1.60e6,1.07e6,1.21e6,inactive
pck,DRSC18565,5.11e5,,8.13e5,,inactive
THG,DRSC01896,1.52e6,1.59e6,1.22e6,1.38e6,inactive
Gr47a,DRSC06221,1.51e6,1.51e6,1.30e6,1.37e6,inactive
HHEX,DRSC16186,1.45e6,1.47e6,8.08e5,9.47e5,inactive
Tsp,DRSC02144,1.08e6,1.32e6,6.47e5,6.63e5,inactive
Tsp,DRSC02145,1.52e6,1.39e6,1.15e6,1.30e6,inactive
CG13862,DRSC14712,1.37e6,1.29e6,1.11e6,1.20e6,inactive
CG4743,DRSC15636,1.53e6,1.49e6,9.35e5,1.06e6,inactive
Galphaf,DRSC11171,1.29e6,1.42e6,1.23e6,1.35e6,inactive
CG10063,DRSC09688,1.52e6,1.63e6,1.13e6,1.19e6,inactive
prd1,DRSC15227,1.88e6,1.90e6,1.23e6,1.34e6,inactive
Rim,DRSC16224,1.48e6,1.60e6,9.87e5,9.91e5,inactive
Rim,DRSC16225,1.06e6,1.17e6,6.06e5,5.89e5,active
Rim,DRSC16226,1.53e6,1.57e6,1.24e6,1.23e6,inactive
Rim,DRSC16227,1.49e6,1.42e6,1.10e6,1.24e6,inactive
CG31104,DRSC14658,1.59e6,1.64e6,1.06e6,1.21e6,inactive
CG14022,DRSC02352,1.63e6,1.66e6,1.20e6,1.45e6,inactive
CSN6,DRSC16593,1.61e6,1.59e6,7.91e5,9.07e5,inactive
CG14625,DRSC18633,1.48e6,1.49e6,1.08e6,1.24e6,inactive
CG17982,DRSC18143,1.48e6,1.43e6,1.03e6,1.09e6,inactive
Kaz-m1,DRSC16990,1.71e6,1.68e6,1.09e6,1.15e6,inactive
ND5 (retired record),DRSC21281,1.84e6,1.86e6,1.23e6,1.39e6,inactive
